Results of single-concentration screens

Chains of the proteins cited; added tags and fusions are not shown. Residues count along the entry.
UniProt P9WNZ1, whole entry: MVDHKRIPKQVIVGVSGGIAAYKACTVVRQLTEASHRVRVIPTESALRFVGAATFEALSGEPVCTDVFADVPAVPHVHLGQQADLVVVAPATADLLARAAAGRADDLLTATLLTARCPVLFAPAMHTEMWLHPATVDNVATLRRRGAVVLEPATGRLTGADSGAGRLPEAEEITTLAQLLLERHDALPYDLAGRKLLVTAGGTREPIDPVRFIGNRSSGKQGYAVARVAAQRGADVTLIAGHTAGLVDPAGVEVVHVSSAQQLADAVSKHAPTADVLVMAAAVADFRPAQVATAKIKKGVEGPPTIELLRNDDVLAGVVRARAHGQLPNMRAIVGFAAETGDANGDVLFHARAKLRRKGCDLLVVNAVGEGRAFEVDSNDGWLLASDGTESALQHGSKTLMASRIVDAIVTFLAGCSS
UniProt Q8IDJ8, 1-583: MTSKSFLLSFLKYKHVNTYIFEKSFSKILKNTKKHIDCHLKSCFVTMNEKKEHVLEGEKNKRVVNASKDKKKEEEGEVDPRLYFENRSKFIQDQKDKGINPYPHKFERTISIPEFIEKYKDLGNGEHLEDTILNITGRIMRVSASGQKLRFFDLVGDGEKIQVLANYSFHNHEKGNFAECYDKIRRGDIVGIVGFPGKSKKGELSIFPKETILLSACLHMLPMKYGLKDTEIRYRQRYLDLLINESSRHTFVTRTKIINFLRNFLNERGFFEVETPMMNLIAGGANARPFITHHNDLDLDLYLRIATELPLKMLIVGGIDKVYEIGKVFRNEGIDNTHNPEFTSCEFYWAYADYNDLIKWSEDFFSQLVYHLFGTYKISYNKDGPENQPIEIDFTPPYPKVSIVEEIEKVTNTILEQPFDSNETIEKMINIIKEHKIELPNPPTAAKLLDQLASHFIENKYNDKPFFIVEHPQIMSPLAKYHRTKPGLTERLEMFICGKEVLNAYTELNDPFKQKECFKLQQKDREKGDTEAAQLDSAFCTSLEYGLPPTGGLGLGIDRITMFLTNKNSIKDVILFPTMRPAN
UniProt A4I591, 1-473: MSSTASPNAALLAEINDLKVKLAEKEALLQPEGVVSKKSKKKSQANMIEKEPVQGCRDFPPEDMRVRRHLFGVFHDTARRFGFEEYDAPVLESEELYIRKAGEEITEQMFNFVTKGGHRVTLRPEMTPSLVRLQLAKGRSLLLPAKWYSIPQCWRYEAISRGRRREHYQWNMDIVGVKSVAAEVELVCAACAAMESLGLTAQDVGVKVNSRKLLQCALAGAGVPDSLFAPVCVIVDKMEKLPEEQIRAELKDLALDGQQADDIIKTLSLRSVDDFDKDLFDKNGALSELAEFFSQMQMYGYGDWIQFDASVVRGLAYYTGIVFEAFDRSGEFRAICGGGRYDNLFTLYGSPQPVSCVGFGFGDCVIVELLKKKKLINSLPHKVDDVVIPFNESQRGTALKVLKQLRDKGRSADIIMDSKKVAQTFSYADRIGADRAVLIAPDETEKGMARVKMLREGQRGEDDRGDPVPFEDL

The values are deposited in ChEMBL (CHEMBL3988442, “University of Dundee, Small-Polar-MMV Screening Library” (2021)).

CoaBC: 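Enzyme assay of CoaBC with a phosphate dye (Biomol Green) read at 650 nm. Target: Coenzyme A biosynthesis protein CoaBC, Mycobacterium tuberculosis (UniProt P9WNZ1). Tested at 30 µM. Higher reads as stronger inhibition, judged from the few compounds that gave an IC50. Most strong results did not repeat in a second test. Size under these conditions: about 67,000 compounds, about 40 of them at 50% or above in at least one test.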
PfKRS1: 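Enzyme assay of the cytosolic lysyl-tRNA synthetase in 384-well plates, read by luminescence. Target: Lysine-tRNA ligase, Plasmodium falciparum 3D7 (UniProt Q8IDJ8). Concentration: 30 µM. Higher reads as stronger inhibition, judged from the few compounds that gave an IC50. Size under these conditions: about 69,000 compounds, about 49 of them at 50% or above in at least one test.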
LiHisRS: 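Histidine-tRNA ligase, Leishmania infantum (UniProt A4I591). Enzyme assay of histidyl-tRNA synthetase; the read-out is not stated. Concentration: 30 µM. The record gives no direction; compounds that gave an IC50 in retests scored well above the rest, so higher reads as stronger inhibition. The assay is labelled LdHisRS but filed under L. infantum. Of about 69,000 compounds tested this way, about 410 (0.6%) reached 50% or more in at least one test.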

Each number is a percent effect as filed.
How 0% and 100% were set is not recorded. Most values in the screen are low, and negative values occur.
This is an unselected part of the compounds tested.
A dash means the value is not listed here; it may have been measured.

| # | SMILES | CoaBC | PfKRS1 | LiHisRS |
|---|---|---|---|---|
| 1 | `Cc1cc(CCC(=O)N2CC[C@H](O)C2)ccc1Br` | 4.781 | 2.818 | 19.18 |
| 2 | `O=S(=O)(c1cncc(F)c1)N1CCSC2(CCCCC2)C1` | -0.9206 | 3.837 | 14.58 |
| 3 | `Cc1cccc(CN2Cc3[nH]nc(COCc4nccs4)c3C2)n1` | -0.6342 | 0 | 22.81 |
| 4 | `CC(NC(=O)NCCCN1CCCCCC1)c1nncn1C` (stereo unspecified) | -6.745 | 8.819 | 18.46 |
| 5 | `Cn1cc(C2CCCN2C(=O)CCn2c(=O)oc3ccccc32)cn1` (stereo unspecified) | 3.571 | 4.681 | 6.25 |
| 6 | `O=C1CC2(CCSC2)C(=O)N1Cc1coc(-c2cccc(F)c2)n1` (stereo unspecified) | -3.125 | -2.047 | 11.46 |
| 7 | `COCCN(C)C[C@H]1C[C@@H](CO)CN(C(=O)c2ccn(C)c(=O)c2)C1` | 0.3367 | 1.197 | 7.447 |
| 8 | `O=C(C1CC1)N1CCC(O)(CN2CCN(c3ccccc3)CC2)C1` (stereo unspecified) | 0.9501 | 1.38 | 8.451 |
| 9 | `CCc1nc(NCCn2cccn2)c2c(n1)c(C)nn2C` | 2.309 | 1.713 | 12.07 |
| 10 | `Cc1ccc(-c2noc(CN3CCCC(Cn4cncn4)C3)n2)cc1` (stereo unspecified) | 3.412 | 0.6972 | 15.25 |
| 11 | `CCN1CCN(C(=O)NCCOc2ccc3c(c2)OCO3)CC1` | 3.162 | 7.554 | 9.375 |
| 12 | `Cc1nc2ncnn2c(C)c1CCC(=O)Nc1cccn(C)c1=O` | 9.163 | 7.664 | 13.7 |
| 13 | `CCOc1c(Br)cc(CNC(C)c2nnc3n2CCC3)cc1OC` (stereo unspecified) | 13.2 | 0.658 | 15.38 |
| 14 | `COc1ccc(C(C(=O)O)N(C)Cc2ccon2)cc1Cl` (stereo unspecified) | 16.7 | -2.87 | 21.88 |
| 15 | `Cc1nc(CN(C)C(=O)C2CC(=O)N(c3cccc(O)c3)C2)cs1` (stereo unspecified) | -0.8444 | 5.16 | 15.2 |
| 16 | `CN(C)CCNC(=O)[C@H]1C[C@@H]2CN(C(=O)NC3CCCC3)C[C@H]1O2` | - | 12.32 | 8.621 |
| 17 | `CC(Cn1ccnc1)NC(=O)NCCN1CCCCCC1=O` (stereo unspecified) | -2.166 | 3.131 | 1.036 |
| 18 | `O=C(Cc1cccc(O)c1)NCCCNC(=O)c1cccc(F)c1` | 1.935 | 0.2223 | 6.957 |
| 19 | `CCn1cc(NC(=O)NC2CCCc3c2cnn3CCO)cn1` (stereo unspecified) | 3.571 | -0.4449 | 12.62 |
| 20 | `O=C(CC1CC2(CCNCC2)c2ccccc21)NCC1CC1` (stereo unspecified) | -2.351 | 0.5173 | 0 |
| 21 | `COCCc1noc(CN2CCCCC2Cn2cccn2)n1` (stereo unspecified) | 3.742 | 1.677 | 15.65 |
| 22 | `Cc1n[nH]c(C)c1-c1cnc(CC2CCCN(S(C)(=O)=O)C2)cn1` (stereo unspecified) | 4.866 | 1.267 | 17.89 |
| 23 | `CN1CCCC2(CCN(c3cc(C(F)(F)F)nc(N(C)C)n3)C2)C1=O` (stereo unspecified) | 1.935 | 5.177 | 3.947 |
| 24 | `NC(=O)c1ccc(CNC(=O)Nc2cn[nH]c2)cc1` | 5.357 | 0.1845 | 10.91 |
| 25 | `O=C(Nc1ccc(-c2ccn[nH]2)cc1)C1CCCN(Cc2ccoc2)C1` (stereo unspecified) | -9.153 | 4.594 | 4.225 |
| 26 | `Cc1noc(C)c1CN1CCCC2(CCN(C(=O)C3CC3)C2)C1` (stereo unspecified) | -4 | -0.6686 | 15.6 |
| 27 | `Cn1ccnc1CN1CCC2(CCCN2c2ncccn2)CC1` | 2.083 | 3.378 | 21.37 |
| 28 | `CN1CCC(N[C@@H]2CO[C@H](CNC(=O)C3CCCC3)[C@H]2O)CC1` | 9.051 | 1.917 | 9.459 |
| 29 | `Cc1ccnc(NCCNC(=O)c2ccccc2NCC(=O)O)c1` | -0.1255 | 4.259 | 15.25 |
| 30 | `COCC(C)N1CCN(CCc2ccc3c(c2)CCO3)CC1` (stereo unspecified) | 4.167 | 1.844 | 12.36 |
| 31 | `CCc1ccc(S(=O)(=O)N2CCCC3(CCCN3S(C)(=O)=O)C2)cc1` (stereo unspecified) | -7.901 | -0.301 | 13.89 |
| 32 | `COc1cccc(CN2CCc3nc(C(N)=O)sc3CC2)c1` | 2.5 | 4.616 | 7.692 |
| 33 | `CNC(=O)CCc1cccc(OC2CCCC2)c1` | 4.382 | 1.33 | 0 |
| 34 | `COCCC(C)NS(=O)(=O)c1ccc(C)c(N(C)C)c1` (stereo unspecified) | 1.942 | 1.572 | -4.819 |
| 35 | `CC(C)Nc1ncnc2c1CCN(C(=O)c1ccccc1F)CC2` | 4.665 | 7.259 | 21.1 |
| 36 | `CC(c1cccs1)N(C)C(=O)c1cc(CN(C)Cc2ccccc2)on1` (stereo unspecified) | 5.725 | 4.909 | 24.73 |
| 37 | `O=C(O)CNC(=O)Cc1csc(-c2cccc(Cl)c2)n1` | -1.316 | 1.517 | 1.379 |
| 38 | `CCC(=O)NC1CCN(c2cccc(CC)c2)CC1` | 3.133 | -3.823 | -5.405 |
| 39 | `Cc1ccc(C)c(OCc2cc(C(=O)N(C)Cc3nonc3C)no2)c1` | 2.571 | -3.759 | 4.167 |
| 40 | `CCc1n[nH]c(C2CN(CCCOc3cccc(C)c3)CCO2)n1` (stereo unspecified) | -1.222 | 0.09789 | 13.7 |
| 41 | `O=C1CCCCN1CCCC(=O)N1CCC2(CC1)[C@H](O)C[C@@H]2O` | 7.576 | 3.005 | 11.48 |
| 42 | `Cc1cc(N(C)Cc2cc(C)on2)n2nc(C)c(C)c2n1` | 0.8439 | 6.086 | 10.58 |
| 43 | `CC(C)(C)C(=O)N1CCCC(c2ncncc2-c2ccncc2)C1` (stereo unspecified) | 4.337 | 0.7682 | 6 |
| 44 | `O=C1N(Cc2ccccc2)C[C@H]2CN(Cc3ccccc3Cl)CCN12` | 11.06 | 3.584 | 19.44 |